# Experimental data taken from the supplement of paper PMC4635364.
# Counter-ions that a name gives are not always drawn. This is one part of the list. Repeats in this data set agree poorly, so a single value says little.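 Cells: ReNCell VM human fetal ventral-midbrain neural progenitors, differentiated mitogen-free. Blinded raters compared doublecortin-stained (early neurons) or tyrosine hydroxylase-stained (dopaminergic neurons) images with untreated wells, where 0 means no change. After repeats and both raters were averaged, compounds scoring 2 or above became hits for retesting.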 Where a SMILES comes first, the peptide text is derived from it. [ ]: non-standard residue; d: D form. pGlu = O=C1CC[C@@H](C(=O)O)N1; Thz = O=C(O)[C@@H]1CSCN1
# Tests used:
# ReNCell VM [1] = assay: neuronal differentiation score (DCX+ cell fraction vs untreated, manual image score) (score (-3 to 3)); higher = more neuronal differentiation; details: 2 uM, 2 weeks
# ReNCell VM [2] = assay: dopaminergic neuron differentiation score (TH+ cell fraction vs untreated, manual image score) (score (0 to 3)); higher = more TH+ dopaminergic neuron differentiation; details: 2 uM, 4 weeks, BDNF 10 ng/ml + GDNF 10 ng/ml
compound,measurement,setting,value
O=c1[nH]cc(F)c(=O)[nH]1 [5-Fluorouracil],neuronal differentiation score,ReNCell VM [1]; library: LOPAC,inactive: 0
same,dopaminergic neuron differentiation score,ReNCell VM [2]; library: LOPAC,inactive: 0
C[C@H]1CCC([C@@H](C)[C@H]2CC[C@H]3[C@@H]4CC(=O)[C@H]5C[C@@H](O)CC[C@]5(C)[C@H]4CC[C@]23C)=NC1 [petiline],neuronal differentiation score,ReNCell VM [1]; library: Natural,inactive: 0
same,dopaminergic neuron differentiation score,ReNCell VM [2]; library: Natural,inactive: 0
"CC(C)NCC(O)c1ccc(O)c(O)c1 (single isomer, unassigned; (+)) [(+)-Isoproterenol (+)-bitartrate salt]",neuronal differentiation score,ReNCell VM [1]; library: Prestwick,inactive: 1
same,dopaminergic neuron differentiation score,ReNCell VM [2]; library: Prestwick,inactive: 1
O=C1Cc2cc(CCN3CCN(c4nsc5ccccc45)CC3)c(Cl)cc2N1,neuronal differentiation score,ReNCell VM [1]; library: Spectrum,inactive: 0
same,dopaminergic neuron differentiation score,ReNCell VM [2]; library: Spectrum,inactive: 0
Cc1cccc(C(=O)NCN2CCN(c3ccccc3C#N)CC2)c1,neuronal differentiation score,ReNCell VM [1]; library: Tocriscreen,inactive: 0
same,dopaminergic neuron differentiation score,ReNCell VM [2]; library: Tocriscreen,inactive: 0
CCOc1cc(C(=O)Nc2ccc(Cl)c(-c3nc4ccccc4[nH]3)c2)cc(OCC)c1OCC,neuronal differentiation score,ReNCell VM [1]; library: Tocriscreen,inactive: 0
same,dopaminergic neuron differentiation score,ReNCell VM [2]; library: Tocriscreen,inactive: 0
CS(=O)(=O)Nc1ccc([N+](=O)[O-])cc1Oc1ccccc1,neuronal differentiation score,ReNCell VM [1]; library: Spectrum,inactive: 0
same,dopaminergic neuron differentiation score,ReNCell VM [2]; library: Spectrum,inactive: 0
CC1(C)O[C@@H]2C[C@H]3[C@@H]4CCC5=CC(=O)C=C[C@]5(C)[C@H]4[C@@H](O)C[C@]3(C)[C@]2(C(=O)CO)O1,neuronal differentiation score,ReNCell VM [1]; library: Spectrum,inactive: 0
same,dopaminergic neuron differentiation score,ReNCell VM [2]; library: Spectrum,inactive: 0
Cc1c(N(C)CS(=O)(=O)O)c(=O)n(-c2ccccc2)n1C,neuronal differentiation score,ReNCell VM [1]; library: Spectrum,inactive: 0
same,dopaminergic neuron differentiation score,ReNCell VM [2]; library: Spectrum,inactive: 0
CCCCC#Cc1nc(N)c2ncn([C@@H]3O[C@H](C(=O)NCC)[C@@H](O)[C@H]3O)c2n1,neuronal differentiation score,ReNCell VM [1]; library: LOPAC,inactive: 0
same,dopaminergic neuron differentiation score,ReNCell VM [2]; library: LOPAC,inactive: 0
Cc1onc(-c2c(Cl)cccc2Cl)c1C(=O)N[C@@H]1C(=O)N2[C@@H]1SC(C)(C)[C@@H]2C(=O)O,neuronal differentiation score,ReNCell VM [1]; library: Spectrum,inactive: 0
same,dopaminergic neuron differentiation score,ReNCell VM [2]; library: Spectrum,inactive: 0
O=C1/C(=C/c2cccs2)CCC/C1=C\c1cccs1,neuronal differentiation score,ReNCell VM [1]; library: Spectrum,inactive: 0
same,dopaminergic neuron differentiation score,ReNCell VM [2]; library: Spectrum,inactive: 0
CC(=O)O[C@]1(C(C)=O)CC[C@H]2[C@@H]3C=C(C)C4=CC(=O)CC[C@]4(C)[C@H]3CC[C@@]21C,neuronal differentiation score,ReNCell VM [1]; library: Spectrum,inactive: 0
same,dopaminergic neuron differentiation score,ReNCell VM [2]; library: Spectrum,inactive: 0
CC(=O)Oc1ccccc1C(=O)Oc1ccccc1C(=O)O [Acetylsalicylsalicylic acid],neuronal differentiation score,ReNCell VM [1]; library: Prestwick,inactive: 0
same,dopaminergic neuron differentiation score,ReNCell VM [2]; library: Prestwick,inactive: 0
Cc1onc(-c2c(F)cccc2Cl)c1C(=O)N[C@@H]1C(=O)N2[C@@H]1SC(C)(C)[C@@H]2C(=O)O [Flucloxacillin sodium],neuronal differentiation score,ReNCell VM [1]; library: Prestwick,inactive: 0
same,dopaminergic neuron differentiation score,ReNCell VM [2]; library: Prestwick,inactive: 0
CC(C)C[C@H](NC(=O)[C@@H](O)[C@H](N)Cc1ccccc1)C(=O)O [Bestatin],neuronal differentiation score,ReNCell VM [1]; library: Tocriscreen,inactive: 0
same,dopaminergic neuron differentiation score,ReNCell VM [2]; library: Tocriscreen,inactive: 0
NC(=O)NO [Hydroxyurea],neuronal differentiation score,ReNCell VM [1]; library: LOPAC,inactive: 0
same,dopaminergic neuron differentiation score,ReNCell VM [2]; library: LOPAC,inactive: 0
CN(C)CCOC(=O)COc1ccc(Cl)cc1 [Centrophenoxine hydrochloride],neuronal differentiation score,ReNCell VM [1]; library: LOPAC,inactive: -1
same,dopaminergic neuron differentiation score,ReNCell VM [2]; library: LOPAC,inactive: 0
Cc1cc(CC(C)CC(C)(C)C)n(O)c(=O)c1 (stereo not drawn),neuronal differentiation score,ReNCell VM [1]; library: Spectrum,inactive: 0
same,dopaminergic neuron differentiation score,ReNCell VM [2]; library: Spectrum,inactive: 0
O=C1CC[C@@H](C(=O)N2CSC[C@H]2C(=O)O)N1 ([pGlu]-[Thz]-OH),neuronal differentiation score,ReNCell VM [1]; library: Spectrum,inactive: 0
same,dopaminergic neuron differentiation score,ReNCell VM [2]; library: Spectrum,inactive: 0
NC1CONC1=O (racemic) [DL-Cycloserine],neuronal differentiation score,ReNCell VM [1]; library: LOPAC,inactive: 0
same,dopaminergic neuron differentiation score,ReNCell VM [2]; library: LOPAC,inactive: 0
NC(CO)C(=O)NNCc1ccc(O)c(O)c1O (stereo not drawn),neuronal differentiation score,ReNCell VM [1]; library: Spectrum,inactive: 0
same,dopaminergic neuron differentiation score,ReNCell VM [2]; library: Spectrum,inactive: 0
CCCc1nn(C)c2c(=O)[nH]c(-c3cc(S(=O)(=O)N4CCN(C)CC4)ccc3OCC)nc12 [Sildenafil],neuronal differentiation score,ReNCell VM [1]; library: Prestwick,inactive: 0
same,dopaminergic neuron differentiation score,ReNCell VM [2]; library: Prestwick,inactive: 0
CC1=C(/C=C/C(C)=C/C=C/C(C)=C/C=C/C=C(C)/C=C/C=C(C)/C=C/C(=O)[C@]2(C)C[C@@H](O)CC2(C)C)C(C)(C)C[C@H](O)C1,neuronal differentiation score,ReNCell VM [1]; library: Spectrum,inactive: 0
same,dopaminergic neuron differentiation score,ReNCell VM [2]; library: Spectrum,inactive: 0
CC1(C)S[C@@H]2[C@H](NC(=O)Cc3ccccc3)C(=O)N2[C@H]1C(=O)O [Benzylpenicillin sodium],neuronal differentiation score,ReNCell VM [1]; library: Prestwick,inactive: 0
same,dopaminergic neuron differentiation score,ReNCell VM [2]; library: Prestwick,inactive: 0
Cn1c(=O)c2c(ncn2CCO)n(C)c1=O [Etofylline],neuronal differentiation score,ReNCell VM [1]; library: Prestwick,inactive: 0
same,dopaminergic neuron differentiation score,ReNCell VM [2]; library: Prestwick,inactive: 0
CC(C)(C)NCC(O)COc1cccc2c1CCC(=O)N2 (stereo not drawn) [Carteolol hydrochloride],neuronal differentiation score,ReNCell VM [1]; library: Prestwick,inactive: 0
same,dopaminergic neuron differentiation score,ReNCell VM [2]; library: Prestwick,inactive: 0
"O=C1C=CC(=O)c2c1ccc1c2ccc2ccccc21 [Chrysene-1,4-quinone]",neuronal differentiation score,ReNCell VM [1]; library: Prestwick,inactive: 0
same,dopaminergic neuron differentiation score,ReNCell VM [2]; library: Prestwick,inactive: 0
CC(=O)N(O)CCCCCNC(=O)CCC(=O)N(O)CCCCCNC(=O)CCC(=O)N(O)CCCCCN [Deferoxamine mesylate],neuronal differentiation score,ReNCell VM [1]; library: Prestwick,inactive: 0
same,dopaminergic neuron differentiation score,ReNCell VM [2]; library: Prestwick,inactive: 0
COC(=O)C[C@H]1C(C)(C)C(=O)[C@@H]2CC3=C4CC(=O)O[C@@H](c5ccoc5)[C@]4(C)CC[C@@H]3[C@@]1(C)C2=O,neuronal differentiation score,ReNCell VM [1]; library: Spectrum,inactive: 0
same,dopaminergic neuron differentiation score,ReNCell VM [2]; library: Spectrum,inactive: 0
CCC(C)(C)C(=O)O[C@H]1C[C@@H](C)C=C2C=C[C@H](C)[C@H](CC[C@@H]3C[C@@H](O)CC(=O)O3)[C@H]21,neuronal differentiation score,ReNCell VM [1]; library: Spectrum,inactive: 1
same,dopaminergic neuron differentiation score,ReNCell VM [2]; library: Spectrum,active: 2
CCN(CC)CCOCCOC(=O)C1(c2ccccc2)CCCC1,neuronal differentiation score,ReNCell VM [1]; library: Spectrum,inactive: 0
same,dopaminergic neuron differentiation score,ReNCell VM [2]; library: Spectrum,inactive: 0
Cc1cccc(Nc2ccncc2S(=O)(=O)NC(=O)NC(C)C)c1 [Torsemide],neuronal differentiation score,ReNCell VM [1]; library: Prestwick,inactive: 0
same,dopaminergic neuron differentiation score,ReNCell VM [2]; library: Prestwick,inactive: 0
Cn1c(=O)c2c(ncn2CC(O)CO)n(C)c1=O (stereo not drawn) [Diprophylline],neuronal differentiation score,ReNCell VM [1]; library: Prestwick,inactive: 0
same,dopaminergic neuron differentiation score,ReNCell VM [2]; library: Prestwick,inactive: 0
